The nature of this assay: qHTS Assay for Lipid Storage Modulators in Drosophila S3 Cells.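 For cell number change: cells counted by Cell Tracker Red CMTPX staining in the red channel.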 Conditions: BODIPY lipid droplet fluorescence, 18-24 h; for cell number change: measured here: cell count max response, cells fed with added oleic acid. In outline: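 Laser-scanning cytometry quantifies lipid droplet accumulation (500–530 nm total intensity; droplet/cell object ratio) in oleic acid-fed (400 uM added) Drosophila S3 cells treated with a concentration series. 20 uM Triacsin C defined 100% inhibition.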
In general terms: qHTS replaces the single test concentration by a dilution series.

Where [1] appears, read: measured here: lipid fluorescence (Fed channel) AC50, cells fed with added oleic acid.
Setting [2] is: measured here: cell number channel AC50, cells fed with added oleic acid.

The list shows a part of the results. These are further read-outs of the screen, such as a control signal, another cell line or another target. No call is given for them. The list favours compounds with an active or inconclusive main result. Potencies come from curve fits of mixed quality, noted in brackets.

In general, AC50 refers to the midpoint of the concentration-response curve, whichever way the signal moves. Read a high AC50 as activity only at high concentration.

`O=C(CNC(=O)c1ccc(Br)o1)NCc1ccc2c(c1)OCO2`: the cell number change amounted to 16%. The AC50 under setting [1] was 5.17 µM [rising, single point].
As for `O=C(NCCNC(=O)c1cc(OCC(F)(F)F)ccc1OCC(F)(F)F)Nc1ccccc1`, the cell number change is -30.2%. For the same molecule, the half-maximal activity concentration (AC50) under setting [1] was 0.231 µM [falling, full curve, poor fit].
Regarding `CCOc1ccc2oc(C(=O)N(Cc3nnc(-c4ccccc4Cl)o3)C3CC3)c(C)c2c1`, the cell number change was -29.1%.
Same read-out and setting: in the case of `O=C(NC1CCS(=O)(=O)C1)c1cccc(S(=O)(=O)N2CCCC2)c1` (stereo not given) it was -40.5%.
In the case of `Cc1noc(C)c1C(=O)Nc1ccc(Cl)cc1C(F)(F)F`, the cell number change amounted to 15.3%. For the same molecule, the half-maximal activity concentration (AC50) under setting [1] was 0.731 µM [rising, single point].
On to `Cc1ccc(C)c(NC(=O)CSc2n[nH]c(-c3ccccn3)n2)c1`, for which the cell number change was -7.62%.
`CC(C)CC(=O)NC(NCC1CCCO1)C(Cl)(Cl)Cl` (stereo not given): the cell number change was -72.4%. Moreover, the AC50 under setting [2] is 2.31 µM [falling, full curve]. For the same molecule, the AC50 under setting [1] was 0.366 µM [falling, partial curve, poor fit].
As to `CCc1ccc2nc(N3CCN(C)CC3)c(C#N)cc2c1`, the cell number change was -3.2%.
As for `Cc1c(NC(=O)c2ccc(=O)oc2)c(=O)n(-c2ccccc2)n1C`, under setting [2], the AC50 was 6.51 µM [rising, single point].
As for `Cn1c(SCC(=O)NC2CCCCC2)nnc1-c1ccccc1O`, the cell number change was found to be 12.7%. Further, the AC50 under setting [1] was 29.1 µM [rising, single point].
On to `NS(=O)(=O)c1ccc(NC(=O)COC(=O)C23CC4CC(CC(C4)C2)C3)cc1`, for which the cell number change is -12.1%. Further, the AC50 under setting [1] is 29.1 µM [rising, single point].
As to `CCOC(=O)C1CCN(C(=O)Cc2ccc(C)cc2)CC1`, the cell number change is -64.4%. The AC50 under setting [2] was 29.1 µM [falling, single point]. The concentration at half-maximal activity (AC50) under setting [1] was 29.1 µM [falling, single point].
In the case of `Cc1cnc(NC(=O)c2cc3c(C)nn(Cc4ccccc4Cl)c3s2)s1`, the cell number change was determined as 6.2%.
`O=C(NCc1ccccn1)c1ccc(NS(=O)(=O)c2ccccc2)cc1`: the cell number change is 23.7%.
`CCN(CC)S(=O)(=O)c1cccc(C(=O)N/N=C/c2cccc(O)c2O)c1`: the cell number change amounted to 2.2%. The concentration at half-maximal activity (AC50) under setting [1] was 5.17 µM [rising, full curve, poor fit].
Consider `CC(=O)C(Sc1ncnc2sc3c(c12)CCCC3)C(C)=O`, for which, under setting [2], the AC50 was 0.0731 µM [rising, full curve, poor fit].
For the molecule `COc1ccc(C(=O)Nc2cc(Cl)ccc2OC(=O)c2ccc(OC)cc2)cc1`, the cell number change is -29.3%. Further, the AC50 under setting [1] is 32.6 µM [falling, single point].
Take `O=C(NCCCn1ccnc1)c1cccc(S(=O)(=O)N2CCCCCC2)c1`: the cell number change worked out at 123%. In addition, the AC50 under setting [2] is 2.91 µM [rising, full curve]. Moreover, under setting [1], the concentration at half-maximal activity (AC50) was 2.59 µM [rising, partial curve].
For the molecule `C/C(=C\c1ccco1)C1C(C#N)=C(N)Oc2n[nH]c(-c3ccc(C)cc3)c21` (stereo not given), the cell number change is -57%. Also, under setting [2], the AC50 was 18.4 µM [falling, partial curve]. Besides, the AC50 under setting [1] was 29.1 µM [falling, single point].
Take `CC(=O)Nc1ccc(NC(=O)CSc2nnnn2-c2ccc3c(c2)OCCO3)cc1`: the cell number change is -26%.
With `O=C(CSc1nc2ccccc2[nH]1)Nc1cc(C(F)(F)F)ccc1N1CCOCC1`, the cell number change is -18.2%. Besides, the AC50 under setting [1] is 0.366 µM [rising, partial curve].
With `COc1ccc(CN(C)C(=O)c2cnc(C)cn2)c(OC)c1OC`, the cell number change was 21.5%. In addition, the AC50 under setting [1] was 23.1 µM [rising, single point].
For the molecule `CCC(C)NC(=O)C1CCN(C(=O)COc2ccc3c4c(c(=O)oc3c2C)CCCC4)CC1` (stereo not given), the cell number change was 34%. In addition, the AC50 under setting [2] was 29.1 µM [rising, single point].
Take `CC12CCCCC1N(O)C(=O)C(=O)N2O` (stereo not given): the cell number change was found to be 69.5%. Besides, the AC50 under setting [2] was 29.1 µM [rising, single point]. The AC50 under setting [1] was 6.51 µM [falling, single point].
In the case of `COc1ccccc1N(C)S(=O)(=O)c1ccc(C(=O)NCc2ccc3c(c2)OCO3)cc1`, the half-maximal activity concentration (AC50) under setting [1] is 29.1 µM [rising, single point].
With `Cn1nc(C(C)(C)C)cc1C(=O)NCc1ccc2c(c1)OCO2`, the cell number change is -38.1%. Besides, the AC50 under setting [2] is 5.17 µM [falling, full curve].
For the molecule `CCOc1ccc(NC(=O)CCN2CCN(c3ccccc3OC)CC2)cc1`, the cell number change was determined as 10.4%. Under setting [1], the concentration at half-maximal activity (AC50) was 2.06 µM [rising, partial curve].
For `OCC1N=C(c2ccccn2)OC1c1ccccc1` (stereo not given), the concentration at half-maximal activity (AC50) was 0.0731 µM [falling, full curve, poor fit] under setting [2] and 18.4 µM [rising, single point] under setting [1].
`CS(=O)(=O)c1sc2nc(-c3cccs3)cc(-c3ccccc3)c2c1N`: the cell number change is 5.36%. Under setting [1], the AC50 is 1.3 µM [rising, partial curve].
As to `COc1ccc(N(CC(=O)Nc2cc(C)on2)S(=O)(=O)c2ccc(Cl)cc2)cc1`, the cell number change is 79.1%. For the same molecule, the AC50 under setting [2] is 23.1 µM [rising, partial curve].
On to `Cc1nc(NC(C)C)c2cnn(CCc3ccccc3)c2n1`, for which, under setting [2], the concentration at half-maximal activity (AC50) was 0.411 µM [rising, full curve].
For `COC(=O)C1=C(N)Oc2cc(C)n(Cc3cccnc3)c(=O)c2C1c1cc(OC)ccc1OC` (stereo not given), the cell number change is -9.73%. The half-maximal activity concentration (AC50) under setting [1] was 0.651 µM [falling, full curve, poor fit].
In the case of `Cc1ccc(S(=O)(=O)N2CCN(C(=O)c3ccco3)CC2)cc1C`, the cell number change amounted to 25.7%. The half-maximal activity concentration (AC50) under setting [1] is 9.2 µM [rising, partial curve, poor fit].
`Cc1cc(NC(=O)C2CCCN2C(=O)Nc2cccc(Cl)c2)ccc1-n1cnnn1` (stereo not given): the cell number change was determined as 20.5%. In addition, the AC50 under setting [1] was 18.4 µM [rising, single point].
Consider `CN1C(=O)/C(=C2\SC(N3CCCCCC3)=NC2=O)c2ccccc21`, for which the half-maximal activity concentration (AC50) runs as follows: under setting [2], 1.84 µM [rising, partial curve, poor fit]; under setting [1], 1.84 µM [rising, partial curve].
Turning to `COc1cccc(NC(=O)/C=C/c2ccco2)c1`, the cell number change is 18.8%. Also, the concentration at half-maximal activity (AC50) under setting [1] was 32.6 µM [rising, single point].
Consider `COc1cc(NS(=O)(=O)c2ccc(NC(=S)NC(=O)c3ccc(F)cc3)cc2)nc(OC)n1`, for which the cell number change was found to be 21%.
Turning to `Cc1ccc(C(=O)OCC(=O)NCc2cccs2)c(C)c1`, the cell number change was 145%. Under setting [2], the AC50 was 29.1 µM [rising, single point].
As to `CCC(C)(C)C1CCC2(CC1)NC(=O)N(CC(=O)N(C)CCOc1ccc(Cl)cc1)C2=O` (stereo not given), the cell number change is 21.6%. The half-maximal activity concentration (AC50) under setting [1] was 16.4 µM [rising, single point].
For the molecule `COc1ccc(/C=C/C(=O)Nc2cccc(C(C)=O)c2)cc1`, the cell number change amounted to 13.1%. For the same molecule, the concentration at half-maximal activity (AC50) under setting [1] is 25.9 µM [rising, partial curve].
For `COc1ccc(C(CNc2ncnc3sc(C)c(C)c23)N(C)C)cc1` (stereo not given), the cell number change was -14.1%.
On to `CC(C)NCCOCCOc1ccc(Cl)cc1Br`, for which the cell number change is 23.6%. Also, the AC50 under setting [1] was 3.26 µM [falling, partial curve, poor fit].
Regarding `CC(=O)c1ccc(NC(=O)C(C)Sc2nnc(C3CCCCC3)o2)cc1` (stereo not given), the cell number change came out at 29.5%. Also, the AC50 under setting [1] is 6.51 µM [rising, single point].
Regarding `C#CCSc1nnnn1-c1ccc(OCC)cc1`, the cell number change is -2.5%. Under setting [1], the AC50 was 20.6 µM [rising, partial curve, poor fit].
`O=C(O)C1CCN(C(=O)COc2ccc3c(c2)oc(=O)c2ccccc23)CC1`: the cell number change was 11.4%. Moreover, the AC50 under setting [1] was 1.46 µM [rising, full curve].
As to `COc1ccc(-c2cc(C(N)=O)nc(N3CCCCCC3)n2)cc1`, the cell number change was -11.1%. Also, the AC50 under setting [1] is 5.8 µM [rising, full curve].
On to `COC(=O)c1ccc(NC(=O)CCN2C(=O)C3C4CCC(C4)C3C2=O)cc1` (stereo not given), for which the cell number change was determined as 3.47%. The AC50 under setting [2] is 0.092 µM [rising, partial curve].
Consider `CCc1cccc(NC(=O)Cc2ccc([N+](=O)[O-])cc2)c1`, for which the half-maximal activity concentration (AC50) under setting [1] is 16.4 µM [rising, single point].
Take `COc1ccc(Cl)cc1NC(=O)CN(C)C(=O)c1cc(C)oc1C`: the cell number change is -10.9%. Besides, the AC50 under setting [1] was 20.6 µM [falling, partial curve].
On to `OC[C@@H](O)[C@H](O)C(/C=N/Nc1ccccc1)=N\Nc1ccccc1`, for which the AC50 under setting [1] was 6.51 µM [rising, single point].
`CCCCOC(=O)c1ccc(NC(=O)CSc2nnnn2C)cc1`: the cell number change is -0.465%.
Turning to `Cc1ccccc1OCc1nc2c3c(ncn2n1)-c1ccccc1CC31CCCC1`, the cell number change came out at 51.8%. The half-maximal activity concentration (AC50) under setting [2] is 8.2 µM [rising, partial curve]. Under setting [1], the AC50 is 6.51 µM [rising, single point].
As for `COC(=O)CSc1nnc(-c2cccc(NC(=O)c3ccc(C)cc3)c2)n1C`, the cell number change is -17.1%. The AC50 under setting [1] was 0.116 µM [rising, single point].
With `O=C(c1cc(S(=O)(=O)N2CCOCC2)c(Cl)cc1Cl)N1CCCCC1`, the cell number change worked out at 1.5%. Further, under setting [1], the AC50 is 6.51 µM [rising, single point].
On to `CC(NC(=O)Nc1cccc([N+](=O)[O-])c1)(C(F)(F)F)C(F)(F)F`, for which the cell number change is -52.5%. The AC50 under setting [2] is 8.2 µM [falling, partial curve].
Take `O=C(CSc1n[nH]c(=O)n1C1CC1)c1c[nH]c2ccccc12`: the cell number change was 6.38%.
Consider `O=C(CSc1nc2ccccc2c(=O)n1-c1ccc(SC(F)F)cc1)Nc1ccc(N2CCOCC2)cc1`, for which the cell number change is -34.6%. In addition, the AC50 under setting [2] was 18.4 µM [falling, single point].
As to `O=C(Nc1ccc(-c2cnco2)cc1)c1ccc(Cl)cc1`, the cell number change amounted to 9.25%. For the same molecule, the AC50 under setting [2] is 0.92 µM [falling, full curve, poor fit]. The half-maximal activity concentration (AC50) under setting [1] was 0.82 µM [falling, full curve].
Regarding `CCN(CC)S(=O)(=O)c1ccc(C(=O)OCC(=O)NCc2ccco2)cc1`, the cell number change stood at 5.91%.
Consider `COc1cc(C[C@@H]2C(=O)OC[C@H]2Cc2ccc(OC)c(OC)c2)ccc1O`, for which the cell number change is -48.3%. Also, the AC50 under setting [2] was 6.51 µM [falling, partial curve]. The AC50 under setting [1] was 0.411 µM [falling, full curve].
In the case of `O=C(c1cnn2c(C(F)F)cc(C3CC3)nc12)N1CCCC1`, the half-maximal activity concentration (AC50) is 0.731 µM [rising, full curve, poor fit] under setting [2] and 18.4 µM [falling, single point] under setting [1].
Turning to `Cc1ccc(/C=C/C(=O)OCC(=O)NCc2ccc(Cl)cc2)o1`, the cell number change is -32.5%. The AC50 under setting [2] is 2.91 µM [falling, full curve]. The AC50 under setting [1] was 25.9 µM [falling, single point].

For the origin of these results see PubChem BioAssay AID2685 (National Center for Advancing Translational Sciences (NCATS), 2010).
